The values that follow come from article doi:10.1101/2021.11.04.467353.

By UniProt entry, the sequences of proteins in these tests, tags left out.
UniProt A0JNW5: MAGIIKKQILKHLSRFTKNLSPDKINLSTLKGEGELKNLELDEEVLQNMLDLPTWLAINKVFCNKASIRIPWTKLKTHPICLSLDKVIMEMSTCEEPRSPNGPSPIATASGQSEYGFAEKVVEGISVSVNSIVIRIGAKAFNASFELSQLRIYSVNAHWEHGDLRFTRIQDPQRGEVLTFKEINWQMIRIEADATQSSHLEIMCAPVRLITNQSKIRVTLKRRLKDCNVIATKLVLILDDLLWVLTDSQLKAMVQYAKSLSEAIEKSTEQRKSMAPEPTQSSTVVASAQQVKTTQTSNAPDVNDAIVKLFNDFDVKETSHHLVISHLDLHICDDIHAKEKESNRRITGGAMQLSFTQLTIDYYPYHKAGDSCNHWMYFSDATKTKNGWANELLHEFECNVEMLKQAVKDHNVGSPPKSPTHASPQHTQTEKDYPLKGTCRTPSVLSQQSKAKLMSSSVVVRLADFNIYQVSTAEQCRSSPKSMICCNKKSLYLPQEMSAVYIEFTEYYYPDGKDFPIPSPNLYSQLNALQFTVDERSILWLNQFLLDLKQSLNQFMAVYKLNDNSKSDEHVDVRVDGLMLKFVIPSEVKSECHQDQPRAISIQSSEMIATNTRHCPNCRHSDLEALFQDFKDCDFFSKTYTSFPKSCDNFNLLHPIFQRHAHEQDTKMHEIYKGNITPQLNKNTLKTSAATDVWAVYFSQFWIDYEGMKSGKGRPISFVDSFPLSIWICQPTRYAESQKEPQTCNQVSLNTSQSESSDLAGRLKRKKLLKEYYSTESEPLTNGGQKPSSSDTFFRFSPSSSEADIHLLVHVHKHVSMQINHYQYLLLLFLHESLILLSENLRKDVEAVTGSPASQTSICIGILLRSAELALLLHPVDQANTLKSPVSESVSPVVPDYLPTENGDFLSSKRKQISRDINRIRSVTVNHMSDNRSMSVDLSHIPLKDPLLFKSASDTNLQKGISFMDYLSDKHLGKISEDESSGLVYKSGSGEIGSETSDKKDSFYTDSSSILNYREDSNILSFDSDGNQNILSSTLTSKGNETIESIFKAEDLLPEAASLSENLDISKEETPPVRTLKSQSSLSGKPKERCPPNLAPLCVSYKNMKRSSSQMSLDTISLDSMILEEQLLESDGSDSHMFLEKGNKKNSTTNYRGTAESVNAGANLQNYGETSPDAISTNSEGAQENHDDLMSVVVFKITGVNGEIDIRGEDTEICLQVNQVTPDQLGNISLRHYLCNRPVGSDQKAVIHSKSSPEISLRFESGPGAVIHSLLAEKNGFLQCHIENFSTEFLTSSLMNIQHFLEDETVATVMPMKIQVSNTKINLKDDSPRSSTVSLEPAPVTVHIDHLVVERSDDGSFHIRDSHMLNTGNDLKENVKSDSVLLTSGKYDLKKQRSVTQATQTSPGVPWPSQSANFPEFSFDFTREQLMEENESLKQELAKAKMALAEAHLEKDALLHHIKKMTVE
UniProt P63168: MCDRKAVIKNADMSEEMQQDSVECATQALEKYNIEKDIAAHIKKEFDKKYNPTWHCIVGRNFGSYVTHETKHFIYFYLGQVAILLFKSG

The assay concerns the target full-length, N-terminally FLAG-tagged human SHIP164 (3xFLAG-SHIP164) (human) (UniProt A0JNW5). The assay is described as follows: affinity purification with mass spectrometry.

Results are given in words; binding and its absence hold for the method and conditions named. In cells and extracts the contact can be indirect. A yes stands for co-enrichment or nearness to the bait. Other partners may have been found.

On to “dynein light chain 1 (DYNLL1) (from UniProt P63168 1-89)”, for which the binding result was “binds”.
